According to PMC8636641:
Numbering of substitutions follows the chain as printed. These are yes or no findings as the source states them, for the method shown. Binding seen in cells or lysates may run through a third protein. A yes stands for co-enrichment or nearness to the bait. Other partners may have been found. Tags and fused reporters may be left off the sequences shown.

Tests used:
Test in all cases: affinity purification with mass spectrometry; V5-tagged rat TAOK2 variants (1-993) expressed in HEK293T cells, cells mock-treated or transfected with 5 ug/ml poly(I:C) for 4 h; lysate in TAP lysis buffer (50 mM Tris-HCl pH 7.5, 100 mM NaCl, 1.5 mM MgCl2, 0.2% NP-40, 5% glycerol, Sm DNase); anti-V5-agarose, 3 h at 4 C; LC-MS/MS, enrichment against combined control baits EGFP and PGAM5
[1] = molecular target: T1, C-terminal transmembrane domain deleted V5-tagged wild-type rat TAOK2 (amino acids 1-993) (rat) (UniProt Q9JLS3)
T1 sequence: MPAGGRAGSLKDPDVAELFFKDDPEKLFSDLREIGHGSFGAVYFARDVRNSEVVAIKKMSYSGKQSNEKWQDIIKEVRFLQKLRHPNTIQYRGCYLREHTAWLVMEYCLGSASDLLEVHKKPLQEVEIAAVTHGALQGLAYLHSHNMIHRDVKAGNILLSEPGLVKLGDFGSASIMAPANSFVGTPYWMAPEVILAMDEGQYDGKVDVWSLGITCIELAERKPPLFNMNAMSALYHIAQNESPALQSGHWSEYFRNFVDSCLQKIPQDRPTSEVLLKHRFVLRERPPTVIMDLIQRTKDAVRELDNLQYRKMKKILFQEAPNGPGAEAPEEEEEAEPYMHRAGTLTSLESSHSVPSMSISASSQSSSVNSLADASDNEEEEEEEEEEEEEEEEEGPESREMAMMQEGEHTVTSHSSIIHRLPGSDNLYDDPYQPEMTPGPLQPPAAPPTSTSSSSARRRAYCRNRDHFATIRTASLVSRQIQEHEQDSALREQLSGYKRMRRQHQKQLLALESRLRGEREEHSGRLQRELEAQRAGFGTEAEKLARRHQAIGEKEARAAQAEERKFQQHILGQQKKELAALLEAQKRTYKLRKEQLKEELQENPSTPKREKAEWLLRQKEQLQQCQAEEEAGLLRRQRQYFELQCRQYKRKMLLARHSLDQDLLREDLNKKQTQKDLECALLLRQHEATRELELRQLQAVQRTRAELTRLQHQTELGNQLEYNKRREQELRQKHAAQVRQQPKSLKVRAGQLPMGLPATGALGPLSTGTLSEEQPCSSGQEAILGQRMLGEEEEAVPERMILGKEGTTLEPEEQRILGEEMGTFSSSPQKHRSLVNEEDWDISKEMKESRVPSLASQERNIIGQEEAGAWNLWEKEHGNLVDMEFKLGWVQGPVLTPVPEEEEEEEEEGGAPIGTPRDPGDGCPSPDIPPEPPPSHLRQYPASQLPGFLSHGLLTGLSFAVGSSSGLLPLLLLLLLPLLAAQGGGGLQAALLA

[2] = molecular target: T2, rat TAOK2 D151A (amino acids 1-993, V5-tagged; mutation in the active site of the kinase domain) (rat) (UniProt Q9JLS3)
T2 sequence: T1 sequence with D151A

[3] = molecular target: T3, rat TAOK2-R702C (amino acids 1-993, V5-tagged; corresponding to human R700C) (rat) (UniProt Q9JLS3)
T3 sequence: T1 sequence with R702C

binding [1]: binds
binding [2]: binds
binding [3]: binds
B1: TRIM4 (protein, UniProt Q9C037 1-500)
chain: MEAEDIQEELTCPICLDYFQDPVSIECGHNFCRGCLHRNWAPGGGPFPCPECRHPSAPAALRPNWALARLTEKTQRRRLGPVPPGLCGRHWEPLRLFCEDDQRPVCLVCRESQEHQTHAMAPIDEAFESYRTGNFDIHVDEWKRRLIRLLLYHFKQEEKLLKSQRNLVAKMKKVMHLQDVEVKNATQWKDKIKSQRMRISTEFSKLHNFLVEEEDLFLQRLNKEEEETKKKLNENTLKLNQTIASLKKLILEVGEKSQAPTLELLQNPKEVLTRSEIQDVNYSLEAVKVKTVCQIPLMKEMLKRFQVAVNLAEDTAHPKLVFSQEGRYVKNTASASSWPVFSSAWNYFAGWRNPQKTAFVERFQHLPCVLGKNVFTSGKHYWEVESRDSLEVAVGVCREDVMGITDRSKMSPDVGIWAIYWSAAGYWPLIGFPGTPTQQEPALHRVGVYLDRGTGNVSFYSAVDGVHLHTFSCSSVSRLRPFFWLSPLASLVIPPVTDRK
